# Assay results reported in PMC7496933, “TIM‐3 and CEACAM1 do not interact in cis and in trans” (European Journal of Immunology, 2020).
# Protein sequences, listed by entry. Tags and fused reporters are not part of them. Lines headed by an entry give the natural chain unless they say otherwise; changes in a name come on top. Residues count along the entry.
# UniProt Q8TDQ0: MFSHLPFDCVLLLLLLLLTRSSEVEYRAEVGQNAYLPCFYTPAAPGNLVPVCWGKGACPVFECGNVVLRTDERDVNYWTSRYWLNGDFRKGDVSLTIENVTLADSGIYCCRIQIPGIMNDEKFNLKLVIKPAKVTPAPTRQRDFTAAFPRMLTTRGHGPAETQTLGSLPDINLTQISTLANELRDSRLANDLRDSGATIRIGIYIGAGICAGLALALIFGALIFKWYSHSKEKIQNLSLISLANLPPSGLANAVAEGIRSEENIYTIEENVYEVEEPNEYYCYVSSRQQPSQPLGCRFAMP
# human TIM‐3 on Jurkat cells: residues 22-301 of Q8TDQ0
# UniProt Q7Z6A9, residues 31-289: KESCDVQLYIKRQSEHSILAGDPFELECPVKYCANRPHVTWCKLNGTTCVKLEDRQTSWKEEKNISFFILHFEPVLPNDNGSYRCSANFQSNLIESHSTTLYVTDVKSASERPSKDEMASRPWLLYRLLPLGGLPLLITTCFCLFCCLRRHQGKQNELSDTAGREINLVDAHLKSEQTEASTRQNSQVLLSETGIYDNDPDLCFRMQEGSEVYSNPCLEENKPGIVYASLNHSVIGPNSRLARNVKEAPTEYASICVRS
# UniProt P09758, residues 27-274: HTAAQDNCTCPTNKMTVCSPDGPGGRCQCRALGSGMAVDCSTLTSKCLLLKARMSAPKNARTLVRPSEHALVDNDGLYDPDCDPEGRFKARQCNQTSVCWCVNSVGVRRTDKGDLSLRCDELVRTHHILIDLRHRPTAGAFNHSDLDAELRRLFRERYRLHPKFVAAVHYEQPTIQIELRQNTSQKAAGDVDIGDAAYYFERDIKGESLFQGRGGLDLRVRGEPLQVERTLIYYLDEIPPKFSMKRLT
# UniProt P09793, residues 36-161: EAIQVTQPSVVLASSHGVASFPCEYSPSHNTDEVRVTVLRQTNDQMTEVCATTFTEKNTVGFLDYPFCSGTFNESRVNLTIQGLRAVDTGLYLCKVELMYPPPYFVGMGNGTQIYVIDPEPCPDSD
# Results are given in words; binding and its absence hold for the method and conditions named. For some of these results: Binding seen in cells or lysates may run through a third protein. Some entries that bind do so weakly or less than the wild type.
# Experiments:
# [1] = target: CEACAM1‐mNeonGreen (human) (UniProt P13688); experiment: FRET or BRET; total internal reflection fluorescence microscopy on living cotransfected HEK293T cells; in cis; FRET yield by donor recovery after acceptor photobleaching; only cells in the highest decile of acceptor expression
# [2] = target: human CEACAM1 (CEACAM1‐4S) on Jurkat cells (human) (UniProt P13688); experiment: flow cytometry on cells; Jurkat cells (1 × 10^5) expressing TIM‐3 or CEACAM1‐4S incubated with Ig fusion proteins at 31.6, 10, 3.16, 1 and 0.316 μg/mL; detected with APC‐conjugated goat‐anti‐human IgG (Fc‐specific); gMFI normalized to secondary Ab only; only the binder purified
# [3] = target: recombinant human Gal‐9 expressed in HEK293T cells (R&D systems) (human) (UniProt O00182); experiment: ELISA; Gal‐9 or CEACAM1 immobilized overnight at 4°C on Maxisorp plates (coating 0.5 μg/mL); Ig fusion proteins added in PBS‐0.5% BSA, 1 h at room temperature; detected with HRP‐labeled goat‐anti‐human IgG (Fc‐specific), ABTS, OD 405 nm; both purified
# [4] = target: recombinant human Gal‐9 expressed in E. coli (R&D systems) (human) (UniProt O00182); experiment: as above
# [5] = target: recombinant human Gal‐9 (Gal‐9 E. coli G) (human) (UniProt O00182); experiment: as above
# [6] = target: human TIM‐3 on Jurkat cells (human) (UniProt Q8TDQ0); experiment: flow cytometry on cells; Jurkat cells (1 × 10^5) expressing TIM‐3 or CEACAM1‐4S incubated with Ig fusion proteins at 31.6, 10, 3.16, 1 and 0.316 μg/mL; detected with APC‐conjugated goat‐anti‐human IgG (Fc‐specific); gMFI normalized to secondary Ab only; only the binder purified
binding [1],binding [2],binding [3],binding [4],binding [5],binding [6],Molecule
no binding,–,–,–,–,–,BTLA‐mRuby3 (from UniProt Q7Z6A9 31-289) (receptor)
–,no binding (tested: 31.6 μg/mL),–,–,–,–,TIM‐3 Ig fusion protein (SinoBiological) (from UniProt Q8TDQ0 22-202) (Fc fusion)
–,–,binds weakly,binds,binds,–,TROP2‐Ig (from UniProt P09758 27-274) (Fc fusion)

# Further lines, the molecule ahead of its results:
Molecule,binding [1],binding [2],binding [3],binding [4],binding [5],binding [6]
fusion protein representing the extracellular domain of CEACAM1 (CEACAM1‐Ig) (from UniProt P13688 35-428) (Fc fusion),–,–,–,–,–,no binding (tested: 31.6 μg/mL)
mouse‐CTLA‐4Ig (from UniProt P09793 36-161) (Fc fusion),–,–,binds weakly,binds,binds,–
"fusion protein representing the extracellular domain of CEACAM1 (CEACAM1‐Ig) (Fc fusion, human, UniProt P13688 35-428, looked up, CEACAM1 (CD66a), extracellular domain; also called CEACAM1 Ig fusion protein; source: bought: SinoBiological) QLTTESMPFNVAEGKEVLLLVHNLPQQLFGYSWYKGERVDGNRQIVGYAIGTQQATPGPANSGRETIYPNASLLIQNVTQNDTGFYTLQVIKSDLVNEEATGQFHVYPELPKPSISSNNSNPVEDKDAVAFTCEPETQDTTYLWWINNQSLPVSPRLQLSNGNRTLTLLSVTRNDTGPYECEIQNPVSANRSDPVTLNVTYGPDTPTISPSDTYYRPGANLSLSCYAASNPPAQYSWLINGTFQQSTQELFIPNITVNNSGSYTCHANNSVTGCNRTTVKTIIVTELSPVVAKPQIKASKTTVTGDKDSVNLTCSTNDTGISIRWFFKNQSLPSSERMKLSQGNTTLSINPVKREDAGTYWCEVFNPISKNQSDPIMLNVNYNALPQENGLSPG",–,binds,binds weakly,binds,binds,–
